In PubChem BioAssay AID504444 (National Center for Advancing Translational Sciences (NCATS), 2011):
About 7,500 (2.1%) of roughly 360,000 compounds were called active. Inconclusive results, whose numbers are uncertain, are shown with a selection of clear calls. Calls come from the whole dose curve; as a rule, active = well fitted inhibition curve with a large enough effect; inconclusive = small, poorly fitted or top-dose-only effect, or effect the other way; inactive = flat fitted curve, though single readings scatter. Potencies of inconclusive entries are doubtful fits and often do not repeat.

assay: Nrf2 qHTS screen for inhibitors; conditions: A549 ARE-Fluc reporter, luciferase luminescence, 18-24 h; activity change, negative = inhibition: at 46 µM (top of the series); note: nearly all actives have a fitted effect of over 60% in size
Procedure, shortened: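 Two sequential reads on A549 ARE_Fluc cells exposed to compound for 18-24 h: a CellTiter-Fluor fluorescence read for viability, then a luciferase luminescence read for Nrf2/ARE activity.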
% is set by controls: 0 for no effect and ±100 for the full control effect; potency is the fitted concentration of half-maximal effect.

Row | SMILES | activity change, negative = inhibition | Potency
1 | COc1ccc(N2CC(C(=O)Nc3ccc4c(c3)OCO4)CC2=O)cc1 (centres undefined) | inactive: -9.31% | 
2 | Cc1ccc(NC(=O)c2ccc([N+](=O)[O-])cc2Cl)nc1 |  | inconclusive: 3.66 µM [activator, partial curve]
3 | CCCCn1c(-c2cccc(C)c2)nc2cc3[nH]c(=O)c(C(C)C)nc3cc21 |  | inconclusive: 29.1 µM [falling, single point]
4 | CCOc1ccc(S(=O)(=O)NCCC(=O)OC(C)C(=O)N2CCc3ccccc32)cc1 (centres undefined) |  | inconclusive: 32.6 µM [falling, partial curve, poor fit]
5 | CCc1ccc(C(=O)NNc2ccc(C)c(Cl)c2)cc1 | inactive: 7.38% | 
6 | CCCCn1nc(C(=O)Oc2ccc3c(C)cc(=O)oc3c2)c2ccccc2c1=O | inactive: 0.238% | 
7 | O=c1oc(-c2ccc(Br)cc2)nc2ccccc12 |  | inconclusive: 5.8 µM [activator, full curve, poor fit]
8 | Cc1ccc(Nc2nc3ccccc3o2)cc1F |  | inconclusive: 20.6 µM [activator, single point]
9 | CC(=O)NCCc1nc2cc(NC(=O)c3ccccc3)ccc2n1C |  | inconclusive: 16.4 µM [activator, partial curve, poor fit]
10 | Cc1ccc(OCC(=O)N2CCN(c3nnc(-c4ccc(C)cc4)c4ccccc34)CC2)cc1 |  | active: 18.4 µM
11 | CS(=O)(=O)N(CC(O)CON=C1c2ccccc2-c2ccccc21)c1ccc(F)cc1 (centres undefined) |  | active: 8.2 µM
12 | CC(=O)c1c(C)[nH]c(C(=O)NCc2ccccc2Cl)c1C |  | inconclusive: 23.1 µM [falling, single point]
13 | O=C1CSC(=S)N1/N=C/C=C/c1ccccc1 | inactive: 8.52% | 
14 | CCn1c(=O)n(CC)c2cc(N3CCCC3)c(NC(=O)c3ccc(OC)c(Br)c3)cc21 | inactive: -16% | 
15 | CCN(CC)C(=O)C(=O)Nc1ccc(OC)c(Cl)c1 |  | inconclusive: 20.6 µM [activator, single point]
16 | O=C(CC1(O)C(=O)N(Cc2ccc3c(c2)OCO3)c2ccccc21)c1ccccc1 (centres undefined) | inactive: -15% | 
17 | COc1ccc(CCNC(=O)CCc2nc3sc4c(c3c(=O)[nH]2)CCCC4)cc1 |  | inconclusive: 29.1 µM [falling, partial curve, poor fit]
18 | CCOC(=O)C1(S(=O)(=O)c2ccc(Cl)cc2)CCN(Cc2ccc(Cl)cc2)CC1 |  | inconclusive: 29.1 µM [falling, single point]
19 | COCCN(C(=O)COC(=O)/C=C/c1cccc(OC)c1)c1c(N)n(CC(C)C)c(=O)[nH]c1=O | inactive: 15.7% | 
20 | Cn1nc(-c2ccc(C(=O)N3CCN(Cc4ccccc4)CC3)cc2)c2ccccc2c1=O |  | inconclusive: 20.6 µM [falling, single point]
21 | O=C(C1CCN(Cc2ccccc2O)CC1)N1CCN(Cc2ccc3c(c2)OCO3)CC1 | inactive: -2.58% | 
22 | COC(=O)c1cc(OC)c(OC)cc1NC(=O)c1ccc(Br)o1 |  | inconclusive: 1.84 µM [falling, full curve]
23 | C=CCOc1ccc2c(=O)n(C)c3ccccc3c2c1 | inactive: 6.54% | 

Exported tab-delimited: part of the list above
Row	SMILES	activity change, negative = inhibition	Potency
3	CCCCn1c(-c2cccc(C)c2)nc2cc3[nH]c(=O)c(C(C)C)nc3cc21		inconclusive: 29.1 µM [falling, single point]
8	Cc1ccc(Nc2nc3ccccc3o2)cc1F		inconclusive: 20.6 µM [activator, single point]
12	CC(=O)c1c(C)[nH]c(C(=O)NCc2ccccc2Cl)c1C		inconclusive: 23.1 µM [falling, single point]
18	CCOC(=O)C1(S(=O)(=O)c2ccc(Cl)cc2)CCN(Cc2ccc(Cl)cc2)CC1		inconclusive: 29.1 µM [falling, single point]

Additional structures

Row | SMILES | activity change, negative = inhibition | Potency
24 | COc1ccc(CCNC(=O)c2cc3c(=O)oc4ccc(C)cc4c3s2)cc1OC |  | inconclusive: 5.17 µM [activator, full curve]
25 | Cc1nc(=S)c2c([nH]1)-c1ccccc1CC21CCCCC1 |  | inconclusive: 29.1 µM [falling, single point]
26 | CC(=O)OCC(=O)[C@@]1(O)CC[C@H]2[C@@H]3C[C@H](C)C4=CC(=O)C=C[C@]4(C)[C@H]3[C@@H](O)C[C@@]21C |  | active: 0.0517 µM
27 | CC(Sc1nnc(C2CC2)n1C1CC1)C(=O)Nc1cccc(S(=O)(=O)N(C)C)c1 (centres undefined) |  | inconclusive: 29.1 µM [falling, single point]
28 | O=C1C=C(c2cccc3c2Oc2ccccc2S3)C[C@@H](c2ccc(Cl)cc2)C1 | inactive: -18.2% | 
29 | Cc1onc(-c2ccccc2)c1C(=O)NC(C)c1ccccc1 (centres undefined) |  | inconclusive: 32.6 µM [falling, single point]
30 | Cc1cc(C(=O)COc2ccccc2Cl)c(C)n1C1CC1 |  | inconclusive: 25.9 µM [falling, single point]
31 | CCCC(C)NC(=O)CN1C(=O)c2cccc3cccc1c23 (centres undefined) | inactive: -9.86% | 
32 | Cc1cc(C(=O)N2CCN(c3ccc([N+](=O)[O-])cc3)CC2)no1 |  | inconclusive: 13 µM [falling, partial curve]
33 | CNc1cccccc1=S | inactive: 1.75% | 
34 | CC(C)(C)OC(=O)NCCc1nnc(SCc2ccc(Cl)cc2Cl)o1 |  | inconclusive: 29.1 µM [falling, single point]
35 | CC1=C(C(=O)OCc2ccc(C)cc2)C(c2cccc(F)c2F)CC(=O)N1 (centres undefined) |  | active: 23.1 µM
36 | Cc1cc(NC(=O)CCCSc2nc(-c3ccco3)cc(C(F)(F)F)n2)n(-c2ccccc2)n1 |  | active: 25.9 µM
37 | Cc1nc(C)c(C(=O)NCCC(c2ccccc2)c2ccccc2)o1 |  | active: 10.3 µM
38 | CSc1nc2sc(-c3ccccc3)cc2c(=O)n1N |  | inconclusive: 3.26 µM [activator, full curve]
39 | CCOC(=O)C1CCN(C(=O)/C=C/c2ccccc2)CC1 |  | inconclusive: 9.2 µM [activator, partial curve, poor fit]
40 | O=C1NC(=Nc2ccc(O)cc2)S/C1=C/c1ccco1 |  | inconclusive: 20.6 µM [activator, single point]
41 | N/C(=N\OC(=O)c1cccs1)c1ccc(Cl)cc1 |  | inconclusive: 7.31 µM [activator, partial curve, poor fit]
42 | COc1ccc(C)cc1S(=O)(=O)Nc1cccc(SC)c1 |  | inconclusive: 16.4 µM [falling, single point]
43 | Cc1cc2oc(=O)cc(CN3CCN(S(=O)(=O)c4ccc5c(c4)OCCO5)CC3)c2cc1C |  | inconclusive: 7.31 µM [falling, partial curve, poor fit]
44 | Cc1ccc(Cl)c(OCC(=O)NCc2ccco2)c1 |  | inconclusive: 3.26 µM [activator, full curve]
45 | CCCOc1ccc2c(c1)C(=NN=C(N)N)c1cc(OCCC)ccc1-2 | inactive: 3.51% | 
46 | Cc1ccc2nc(Cl)c3cc(C(=O)NCCCN(C)Cc4ccccc4)sc3c2c1 | inactive: 1% | 

Row | SMILES | activity change, negative = inhibition | Potency
47 | COc1ccc(C2C=C(c3ccc(Br)cc3)Nc3nnnn32)c(OC)c1 (centres undefined) |  | active: 14.6 µM
48 | CCNc1nc(N)c(C(=O)c2ccc(Cl)s2)s1 |  | inconclusive: 2.59 µM [activator, partial curve, poor fit]
49 | CCC(C)(C)C1CCc2[nH]nc(C(=O)NC3CCCC3)c2C1 (centres undefined) |  | inconclusive: 20.6 µM [falling, single point]
50 | CC1=C(C(N)=O)C(c2cccs2)n2nc(-c3cccc(Cl)c3)nc2N1 (centres undefined) |  | active: 13 µM
51 | CCOC(=O)N/N=C/c1cn(CCCOc2ccc(C)cc2)c2ccccc12 | inactive: 9.57% | 
52 | CC(Sc1nnc(Cc2cccs2)n1C)C(=O)Nc1ccc(C(N)=O)cc1 (centres undefined) | inactive: -0.604% | 
53 | CCOC(=O)Cc1c(C)c2c(C)nn(-c3ccccc3)c2oc1=O |  | inconclusive: 10.3 µM [falling, partial curve, poor fit]
54 | CCN(CC)S(=O)(=O)c1cc(C(=O)Nc2ccncc2)ccc1Cl |  | inconclusive: 11.6 µM [falling, partial curve, poor fit]
55 | CCOC(CCn1c(SCc2cccc([N+](=O)[O-])c2)nc2ccccc2c1=O)OCC |  | inconclusive: 25.9 µM [falling, partial curve, poor fit]
56 | O=C(NP(=O)(N1CCOCC1)N1CCOCC1)C1=C(N2CCOCC2)/C(=C\c2ccccc2)CC1 | inactive: 13.3% | 
57 | COc1ccccc1CNC(=O)CSc1ccccc1 |  | inconclusive: 8.2 µM [activator, partial curve]
58 | Cn1cnc2cc(NC(=O)c3cccs3)ccc21 |  | inconclusive: 1.3 µM [activator, full curve]
59 | CN(C)c1ccc(Nc2nc3ccccc3n3nnnc23)cc1 |  | inconclusive: 0.146 µM [falling, full curve]
60 | COc1ccc(C2Nc3ccccc3C(=O)N2Cc2cccc(-c3ccccc3)c2)cc1COc1ccc(NC(C)=O)cc1 (centres undefined) |  | inconclusive: 1.84 µM [falling, partial curve, poor fit]
61 | Cc1c(CN2CCC(CO)(CCOc3ccccc3)CC2)[nH]c2ccc(Cl)cc12 |  | inconclusive: 18.4 µM [activator, single point]
62 | CC1CCc2[nH]c3ccc(C(=O)NCCCOC(C)C)cc3c2C1 (centres undefined) |  | inconclusive: 25.9 µM [falling, single point]
63 | Cc1sc(=NC(=O)c2ccco2)n(C)c1-c1ccccc1 |  | inconclusive: 0.366 µM [activator, full curve, poor fit]
64 | CC1=C(C(=O)Nc2ccc(C)cc2C)C(c2ccc(Br)cc2)n2ncc(C(=O)Nc3cccc(C)c3)c2N1 (centres undefined) |  | inconclusive: 18.4 µM [activator, single point]
65 | CCOc1c(O)ccc(/C=C2\SC(=S)NC2=O)c1[N+](=O)[O-] |  | inconclusive: 23.1 µM [activator, single point]
66 | COc1ccc(NC(=O)c2cc([N+](=O)[O-])ccc2N2CCCCC2)cc1 |  | inconclusive: 29.1 µM [activator, single point]
67 | N#C/C(=C\c1ccc(O)c([N+](=O)[O-])c1)c1nc2ccccc2s1 |  | inconclusive: 18.4 µM [falling, single point]
68 | O=Cc1ccc(OCC(=O)N2CCc3ccccc32)c(Br)c1 |  | inconclusive: 10.3 µM [activator, partial curve, poor fit]
69 | O=C(OCc1ccccc1)N1CCC2CC1c1cc(-c3ccccc3)ccc12 (centres undefined) |  | inconclusive: 18.4 µM [activator, partial curve]
